Results as given in article PMC6713708.

Sequences of proteins named here, by UniProt entry; tags and fusion partners are left off. A change or cut given only in a name is not applied to a line headed by its entry.
UniProt Q9NYM9: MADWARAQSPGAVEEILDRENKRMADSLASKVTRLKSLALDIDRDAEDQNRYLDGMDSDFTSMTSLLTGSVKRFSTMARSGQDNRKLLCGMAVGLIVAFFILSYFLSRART

B1: GM130 (protein, UniProt Q08379 1-1002)
chain: MWPQPRLPPRPAMSEETRQSKLAAAKKKLREYQQRNSPGVPTGAKKKKKIKNGSNPETTTSGGCHSPEDTPKDNAATLQPSDDTVLPGGVPSPGASLTSMAASQNHDADNVPNLMDETKTFSSTESLRQLSQQLNGLVCESATCVNGEGPASSANLKDLESRYQQLAVALDSSYVTNKQLNITIEKLKQQNQEITDQLEEEKKECHQKQGALREQLQVHIQTIGILVSEKAELQTALAHTQHAARQKEGESEDLASRLQYSRRRVGELERALSAVSTQQKKADRYNKELTKERDALRLELYKNTQSNEDLKQEKSELEEKLRVLVTEKAGMQLNLEELQKKLEMTELLLQQFSSRCEAPDANQQLQQAMEERAQLEAHLGQVMESVRQLQMERDKYAENLKGESAMWRQRMQQMSEQVHTLREEKECSMSRVQELETSLAELRNQMAEPPPPEPPAGPSEVEQQLQAEAEHLRKELEGLAGQLQAQVQDNEGLSRLNREQEERLLELERAAELWGEQAEARRQILETMQNDRTTISRALSQNRELKEQLAELQSGFVKLTNENMEITSALQSEQHVKRELGKKLGELQEKLSELKETVELKSQEAQSLQQQRDQYLGHLQQYVAAYQQLTSEKEVLHNQLLLQTQLVDQLQQQEAQGKAVAEMARQELQETQERLEAATQQNQQLRAQLSLMAHPGEGDGLDREEEEDEEEEEEEAVAVPQPMPSIPEDLESREAMVAFFNSAVASAEEEQARLRGQLKEQRVRCRRLAHLLASAQKEPEAAAPAPGTGGDSVCGETHRALQGAMEKLQSRFMELMQEKADLKERVEELEHRCIQLSGETDTIGEYIALYQSQRAVLKERHREKEEYISRLAQDKEEMKVKLLELQELVLRLVGDRNEWHGRFLAAAQNPADEPTSGAPAPQELGAANQQGDLCEVSLAGSVEPAQGEAREGSPRDNPTAQQIMQLLREMQNPRERPGLGSNPCIPFFYRADENDEVKITVI
B2: YFP-Golgin45 (protein, UniProt Q9H2G9 1-400)
chain: MTTKNLETKVTVTSSPIRGAGDGMETEEPPKSVEVTSGVQSRKHHSLQSPWKKAVPSESPGVLQLGKMLTEKAMEVKAVRILVPKAAITHDIPNKNTKVKSLGHHKGEFLGQSEGVIEPNKELSEVKNVLEKLKNSERRLLQDKEGLSNQLRVQTEVNRELKKLLVASVGDDLQYHFERLAREKNQLILENEALGRNTAQLSEQLERMSIQCDVWRSKFLASRVMADELTNSRAALQRQNRDAHGAIQDLLSEREQFRQEMIATQKLLEELLVSLQWGREQTYSPSVQPHSTAELALTNHKLAKAVNSHLLGNVGINNQKKIPSTVEFCSTPAEKMAETVLRILDPVTCKESSPDNPFFESSPTTLLATKKNIGRFHPYTRYENITFNCCNHCRGELIAL

Biological target: GST-GS15 (UniProt Q9NYM9)
Assay: pull-down; GST-Syntaxin5 cytoplasmic domain or GST-GS15 as bait; prey from HeLa cell extract; only the target purified

Binder | binding
B1 | no binding
B2 | no binding

Results are given in words; binding and its absence hold for the method and conditions named. Binding seen in cells or lysates may run through a third protein. Where a sequence is shown, tags or fusion partners need not be part of it.
